Patent publication US20190017997A1
These are yes or no findings as the source states them, for the method shown. In cells and extracts the contact can be indirect. Some results given as binding are weak or reduced against the parent protein; the word gives no strength.

Chains of the proteins cited; added tags and fusions are not shown. Lines headed by an entry give the natural chain unless they say otherwise; changes in a name come on top.
UniProt O96013: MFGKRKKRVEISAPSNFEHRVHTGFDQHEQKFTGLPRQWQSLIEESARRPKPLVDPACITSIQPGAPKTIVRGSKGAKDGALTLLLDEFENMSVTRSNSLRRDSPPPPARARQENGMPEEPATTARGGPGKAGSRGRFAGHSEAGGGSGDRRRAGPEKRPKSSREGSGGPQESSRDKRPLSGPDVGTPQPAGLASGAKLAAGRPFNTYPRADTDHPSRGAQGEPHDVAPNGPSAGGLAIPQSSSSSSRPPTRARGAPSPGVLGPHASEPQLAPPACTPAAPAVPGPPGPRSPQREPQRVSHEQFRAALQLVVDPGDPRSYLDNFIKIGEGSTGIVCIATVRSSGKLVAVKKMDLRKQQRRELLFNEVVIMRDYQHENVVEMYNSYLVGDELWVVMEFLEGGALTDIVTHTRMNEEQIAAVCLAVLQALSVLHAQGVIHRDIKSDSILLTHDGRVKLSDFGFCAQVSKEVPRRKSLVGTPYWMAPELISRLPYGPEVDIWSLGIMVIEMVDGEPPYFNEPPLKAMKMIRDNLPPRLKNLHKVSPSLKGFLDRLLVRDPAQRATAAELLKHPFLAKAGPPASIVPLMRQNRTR

Molecular target: T1, CRTC1 (CREB-regulated transcription coactivator 1) (human) (UniProt Q6UUV9)
T1 sequence: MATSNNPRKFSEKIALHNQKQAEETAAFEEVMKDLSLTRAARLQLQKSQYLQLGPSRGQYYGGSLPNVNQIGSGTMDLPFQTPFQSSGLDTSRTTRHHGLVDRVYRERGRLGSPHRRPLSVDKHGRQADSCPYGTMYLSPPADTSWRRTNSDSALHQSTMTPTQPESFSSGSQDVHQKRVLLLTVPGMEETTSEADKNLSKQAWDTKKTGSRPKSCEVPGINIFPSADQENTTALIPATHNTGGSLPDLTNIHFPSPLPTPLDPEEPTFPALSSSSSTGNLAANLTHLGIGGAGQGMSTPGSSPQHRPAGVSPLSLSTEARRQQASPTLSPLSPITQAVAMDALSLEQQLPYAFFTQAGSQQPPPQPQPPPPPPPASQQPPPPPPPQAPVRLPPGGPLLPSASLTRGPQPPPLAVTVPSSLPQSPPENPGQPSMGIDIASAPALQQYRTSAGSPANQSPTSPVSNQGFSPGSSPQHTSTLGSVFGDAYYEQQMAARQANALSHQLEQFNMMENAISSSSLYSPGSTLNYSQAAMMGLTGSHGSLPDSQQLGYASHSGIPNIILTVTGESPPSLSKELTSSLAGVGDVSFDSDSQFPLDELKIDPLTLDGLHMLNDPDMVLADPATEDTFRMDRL
Experiment: co-immunoprecipitation with anti-PAK4 in SH-SY5Y cells, and His pull-down of GST-PAK4 on His-CRTC1-bound Ni-NTA beads; immunoblot

binding: binds
Substance: PAK4 (p21-activated kinase 4) (from UniProt O96013 1-591) (enzyme)
